For one substance, binding results are on record in publication PMC6437151.

By UniProt entry, the sequences of proteins in these tests, tags left out.
UniProt P35222: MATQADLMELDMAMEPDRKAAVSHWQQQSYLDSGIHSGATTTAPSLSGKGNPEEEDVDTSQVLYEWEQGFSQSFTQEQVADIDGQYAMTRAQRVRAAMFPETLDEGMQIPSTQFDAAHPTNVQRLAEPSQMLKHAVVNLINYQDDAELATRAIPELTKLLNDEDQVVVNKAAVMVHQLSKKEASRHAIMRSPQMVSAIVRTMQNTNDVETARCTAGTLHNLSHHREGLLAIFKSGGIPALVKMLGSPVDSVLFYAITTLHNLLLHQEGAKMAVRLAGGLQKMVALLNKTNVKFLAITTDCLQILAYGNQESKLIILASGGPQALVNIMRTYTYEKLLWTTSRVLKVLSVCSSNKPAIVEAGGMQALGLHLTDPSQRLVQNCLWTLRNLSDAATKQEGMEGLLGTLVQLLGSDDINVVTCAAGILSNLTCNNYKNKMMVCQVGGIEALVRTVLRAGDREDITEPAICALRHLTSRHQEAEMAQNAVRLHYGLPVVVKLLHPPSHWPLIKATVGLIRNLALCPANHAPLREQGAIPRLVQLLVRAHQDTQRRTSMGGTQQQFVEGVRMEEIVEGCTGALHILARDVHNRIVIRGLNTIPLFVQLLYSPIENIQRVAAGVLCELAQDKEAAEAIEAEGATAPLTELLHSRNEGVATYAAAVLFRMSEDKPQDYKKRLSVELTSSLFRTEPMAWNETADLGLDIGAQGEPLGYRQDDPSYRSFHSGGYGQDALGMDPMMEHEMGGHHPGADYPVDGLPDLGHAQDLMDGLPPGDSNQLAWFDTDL

For this assay, the target named is T1, tagged wild-type FBXW2 (F-box and WD-repeat domain-containing 2) (UniProt Q9UKT8).
T1 sequence: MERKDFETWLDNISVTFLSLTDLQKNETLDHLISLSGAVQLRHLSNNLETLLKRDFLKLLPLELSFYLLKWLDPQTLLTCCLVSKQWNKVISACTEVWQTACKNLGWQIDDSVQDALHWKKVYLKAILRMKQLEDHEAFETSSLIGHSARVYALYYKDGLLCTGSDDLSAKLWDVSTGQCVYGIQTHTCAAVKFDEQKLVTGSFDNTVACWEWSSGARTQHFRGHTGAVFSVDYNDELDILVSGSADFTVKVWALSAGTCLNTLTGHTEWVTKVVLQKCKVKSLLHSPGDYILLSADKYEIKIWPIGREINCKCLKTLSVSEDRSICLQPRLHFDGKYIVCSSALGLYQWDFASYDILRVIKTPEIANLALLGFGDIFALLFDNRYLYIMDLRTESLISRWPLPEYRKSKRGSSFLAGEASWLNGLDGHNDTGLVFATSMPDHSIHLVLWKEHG
The assay can be described thus: affinity purification with mass spectrometry; H1299 cells with ectopic expression of tagged wild-type FBXW2; 196 putative binding proteins.

No constants are given. Whether binding was seen depends on the method and setting. Binding seen in cells or lysates may run through a third protein. Here binding means that the protein was enriched with, or labelled near, the bait; the list need not be complete. Sequences can lack the tags named with a protein.

Consider “endogenous β-catenin (from UniProt P35222 1-781)”, for which the binding entry is given as “binds”.
